The list shows a part of the results.
Assays:
Assay in all cases: log2 fold change, soluble protein after heating vs DMSO (PISA); higher = thermal stabilisation; K562 cells, 10 uM, 30 min; active = over 0.2 and 3.5 SD of the protein, either way, in both replicates (recomputed)
[1] = compound: C#Cc1cccc(Nc2ncnc3cc(OCCOC)c(OCCOC)cc23)c1 [erlotinib]
Summary of the method: (§1)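 K562 cells at 2×10^6 cells/mL were given 10 μM compound for 30 min. Aliquots then went through 3 min of heating across 48°C-58°C, were pooled, and were extracted in PBS with 0.5% NP-40 at 4°C, and the supernatant after 21,000xg for 90 min was quantified by TMTpro 16plex LC-MS/MS with channel sums equalised. Thermal stability relative to control samples, from duplicates, is given as log2 fold change.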

Chains of the proteins cited; added tags and fusions are not shown. Lines headed by an entry give the natural chain unless they say otherwise; changes in a name come on top.
UniProt P53701: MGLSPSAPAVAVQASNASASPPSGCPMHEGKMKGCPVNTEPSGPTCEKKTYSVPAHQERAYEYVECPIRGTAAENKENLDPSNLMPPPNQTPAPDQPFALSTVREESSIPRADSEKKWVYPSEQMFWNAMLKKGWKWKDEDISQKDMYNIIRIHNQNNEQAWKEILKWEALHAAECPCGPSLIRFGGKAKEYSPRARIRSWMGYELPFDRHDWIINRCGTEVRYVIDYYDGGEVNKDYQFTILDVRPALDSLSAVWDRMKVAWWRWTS
UniProt Q8TDG4: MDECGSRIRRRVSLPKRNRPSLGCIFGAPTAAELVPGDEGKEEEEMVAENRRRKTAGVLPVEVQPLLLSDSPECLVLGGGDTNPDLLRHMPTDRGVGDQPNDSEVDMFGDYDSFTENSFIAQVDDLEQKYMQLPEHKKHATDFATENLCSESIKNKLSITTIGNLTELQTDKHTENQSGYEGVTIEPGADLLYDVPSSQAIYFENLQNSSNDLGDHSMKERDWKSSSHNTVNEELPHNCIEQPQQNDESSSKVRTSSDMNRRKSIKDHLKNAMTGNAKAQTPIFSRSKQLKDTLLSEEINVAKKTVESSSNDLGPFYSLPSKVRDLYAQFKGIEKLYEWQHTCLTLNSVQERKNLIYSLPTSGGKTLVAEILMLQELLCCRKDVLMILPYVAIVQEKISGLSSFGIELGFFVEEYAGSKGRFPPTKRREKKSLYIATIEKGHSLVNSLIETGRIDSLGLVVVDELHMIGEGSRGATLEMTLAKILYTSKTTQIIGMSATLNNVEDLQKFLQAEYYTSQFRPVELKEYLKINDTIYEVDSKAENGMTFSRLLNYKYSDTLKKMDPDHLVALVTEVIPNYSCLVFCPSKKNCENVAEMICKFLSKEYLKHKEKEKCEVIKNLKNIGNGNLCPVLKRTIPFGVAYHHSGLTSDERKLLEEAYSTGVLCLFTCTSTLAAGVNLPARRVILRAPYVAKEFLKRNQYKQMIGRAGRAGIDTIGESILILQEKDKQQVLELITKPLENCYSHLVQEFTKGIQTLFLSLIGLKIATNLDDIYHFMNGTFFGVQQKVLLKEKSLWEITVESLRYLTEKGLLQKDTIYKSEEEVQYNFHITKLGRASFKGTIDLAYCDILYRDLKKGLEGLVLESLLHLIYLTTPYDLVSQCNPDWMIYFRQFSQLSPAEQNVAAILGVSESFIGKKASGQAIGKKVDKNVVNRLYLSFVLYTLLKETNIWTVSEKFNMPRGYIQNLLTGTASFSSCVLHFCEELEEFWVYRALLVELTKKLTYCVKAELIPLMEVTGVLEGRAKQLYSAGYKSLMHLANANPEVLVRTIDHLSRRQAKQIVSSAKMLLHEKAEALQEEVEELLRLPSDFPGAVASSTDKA
UniProt Q00403, whole entry, looked up: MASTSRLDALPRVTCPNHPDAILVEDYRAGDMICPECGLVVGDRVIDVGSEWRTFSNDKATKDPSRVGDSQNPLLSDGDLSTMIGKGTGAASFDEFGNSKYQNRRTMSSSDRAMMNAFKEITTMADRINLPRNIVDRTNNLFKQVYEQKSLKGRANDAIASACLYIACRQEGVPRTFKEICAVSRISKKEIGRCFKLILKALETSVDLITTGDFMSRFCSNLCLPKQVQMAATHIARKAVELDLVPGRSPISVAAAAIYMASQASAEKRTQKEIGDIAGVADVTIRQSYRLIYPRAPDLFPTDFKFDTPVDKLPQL
UniProt Q8N4P3, whole entry, looked up: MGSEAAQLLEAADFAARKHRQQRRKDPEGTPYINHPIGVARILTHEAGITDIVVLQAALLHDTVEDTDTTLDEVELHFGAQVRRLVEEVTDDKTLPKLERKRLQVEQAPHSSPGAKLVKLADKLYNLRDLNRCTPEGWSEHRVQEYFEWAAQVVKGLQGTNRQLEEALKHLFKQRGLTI
UniProt Q9UKN8: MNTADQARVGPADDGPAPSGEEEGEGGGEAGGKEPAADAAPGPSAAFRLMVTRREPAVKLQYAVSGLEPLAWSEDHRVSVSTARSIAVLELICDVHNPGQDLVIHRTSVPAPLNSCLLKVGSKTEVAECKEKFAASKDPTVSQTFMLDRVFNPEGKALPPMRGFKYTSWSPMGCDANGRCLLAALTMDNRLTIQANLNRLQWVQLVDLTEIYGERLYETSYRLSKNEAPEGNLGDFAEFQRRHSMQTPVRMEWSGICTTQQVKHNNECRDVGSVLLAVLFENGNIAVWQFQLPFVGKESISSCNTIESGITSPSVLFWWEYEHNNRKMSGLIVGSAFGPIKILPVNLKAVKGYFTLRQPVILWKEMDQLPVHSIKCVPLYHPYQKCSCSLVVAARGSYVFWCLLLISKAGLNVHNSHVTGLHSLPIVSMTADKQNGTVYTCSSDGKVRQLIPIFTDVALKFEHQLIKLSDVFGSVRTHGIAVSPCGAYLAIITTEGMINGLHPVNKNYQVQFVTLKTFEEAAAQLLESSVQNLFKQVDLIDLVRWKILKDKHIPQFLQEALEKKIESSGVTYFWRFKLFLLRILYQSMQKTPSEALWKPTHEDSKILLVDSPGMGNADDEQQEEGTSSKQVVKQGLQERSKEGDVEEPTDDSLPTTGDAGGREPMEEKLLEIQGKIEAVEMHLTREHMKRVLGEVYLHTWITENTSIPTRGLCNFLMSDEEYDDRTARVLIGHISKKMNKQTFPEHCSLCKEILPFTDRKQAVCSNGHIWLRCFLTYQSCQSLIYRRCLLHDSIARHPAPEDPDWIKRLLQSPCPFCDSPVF
UniProt P08236: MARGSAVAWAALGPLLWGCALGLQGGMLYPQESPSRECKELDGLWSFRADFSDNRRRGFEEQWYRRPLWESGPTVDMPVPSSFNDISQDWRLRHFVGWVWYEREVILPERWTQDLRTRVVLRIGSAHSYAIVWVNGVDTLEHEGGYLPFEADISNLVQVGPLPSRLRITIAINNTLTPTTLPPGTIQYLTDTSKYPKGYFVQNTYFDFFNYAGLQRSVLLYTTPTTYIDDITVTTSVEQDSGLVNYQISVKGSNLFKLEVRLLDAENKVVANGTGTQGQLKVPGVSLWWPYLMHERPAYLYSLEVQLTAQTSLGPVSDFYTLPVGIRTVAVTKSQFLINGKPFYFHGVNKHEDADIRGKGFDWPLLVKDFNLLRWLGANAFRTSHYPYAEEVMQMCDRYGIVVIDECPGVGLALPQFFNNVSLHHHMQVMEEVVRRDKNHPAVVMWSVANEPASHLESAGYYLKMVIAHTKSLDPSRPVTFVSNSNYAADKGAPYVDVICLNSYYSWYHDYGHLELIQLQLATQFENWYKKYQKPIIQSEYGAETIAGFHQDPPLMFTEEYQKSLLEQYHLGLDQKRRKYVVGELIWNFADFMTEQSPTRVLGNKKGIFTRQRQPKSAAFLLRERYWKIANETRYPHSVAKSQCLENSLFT
UniProt P10412, whole entry, looked up: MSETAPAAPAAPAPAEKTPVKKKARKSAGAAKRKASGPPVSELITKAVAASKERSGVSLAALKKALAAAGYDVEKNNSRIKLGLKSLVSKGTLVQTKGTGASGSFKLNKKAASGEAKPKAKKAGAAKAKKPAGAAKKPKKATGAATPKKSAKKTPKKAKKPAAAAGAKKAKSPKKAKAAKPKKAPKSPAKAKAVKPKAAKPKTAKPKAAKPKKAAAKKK
UniProt P09211: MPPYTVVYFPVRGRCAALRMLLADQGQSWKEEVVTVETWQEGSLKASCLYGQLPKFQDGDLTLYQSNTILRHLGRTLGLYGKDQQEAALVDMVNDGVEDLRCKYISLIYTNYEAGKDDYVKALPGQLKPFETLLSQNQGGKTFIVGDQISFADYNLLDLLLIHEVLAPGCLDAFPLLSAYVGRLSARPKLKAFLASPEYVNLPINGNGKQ
UniProt Q7Z4V5: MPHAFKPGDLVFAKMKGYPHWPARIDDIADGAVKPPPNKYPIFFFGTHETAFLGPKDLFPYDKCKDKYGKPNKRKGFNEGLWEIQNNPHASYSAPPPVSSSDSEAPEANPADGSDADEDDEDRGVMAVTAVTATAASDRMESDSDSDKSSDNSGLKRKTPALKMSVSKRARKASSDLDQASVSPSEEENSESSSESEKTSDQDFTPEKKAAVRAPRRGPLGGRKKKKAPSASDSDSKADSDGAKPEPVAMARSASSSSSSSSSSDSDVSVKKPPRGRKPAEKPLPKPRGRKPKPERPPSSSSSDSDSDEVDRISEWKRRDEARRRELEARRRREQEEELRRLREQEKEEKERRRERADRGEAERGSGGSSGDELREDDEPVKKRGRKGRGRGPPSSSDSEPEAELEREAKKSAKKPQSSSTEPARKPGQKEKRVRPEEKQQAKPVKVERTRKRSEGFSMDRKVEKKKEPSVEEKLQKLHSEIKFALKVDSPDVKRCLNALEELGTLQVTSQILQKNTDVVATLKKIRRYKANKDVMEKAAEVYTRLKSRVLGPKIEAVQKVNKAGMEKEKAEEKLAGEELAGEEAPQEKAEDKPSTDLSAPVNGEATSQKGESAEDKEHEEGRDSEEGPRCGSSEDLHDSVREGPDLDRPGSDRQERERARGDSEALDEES
UniProt Q12789: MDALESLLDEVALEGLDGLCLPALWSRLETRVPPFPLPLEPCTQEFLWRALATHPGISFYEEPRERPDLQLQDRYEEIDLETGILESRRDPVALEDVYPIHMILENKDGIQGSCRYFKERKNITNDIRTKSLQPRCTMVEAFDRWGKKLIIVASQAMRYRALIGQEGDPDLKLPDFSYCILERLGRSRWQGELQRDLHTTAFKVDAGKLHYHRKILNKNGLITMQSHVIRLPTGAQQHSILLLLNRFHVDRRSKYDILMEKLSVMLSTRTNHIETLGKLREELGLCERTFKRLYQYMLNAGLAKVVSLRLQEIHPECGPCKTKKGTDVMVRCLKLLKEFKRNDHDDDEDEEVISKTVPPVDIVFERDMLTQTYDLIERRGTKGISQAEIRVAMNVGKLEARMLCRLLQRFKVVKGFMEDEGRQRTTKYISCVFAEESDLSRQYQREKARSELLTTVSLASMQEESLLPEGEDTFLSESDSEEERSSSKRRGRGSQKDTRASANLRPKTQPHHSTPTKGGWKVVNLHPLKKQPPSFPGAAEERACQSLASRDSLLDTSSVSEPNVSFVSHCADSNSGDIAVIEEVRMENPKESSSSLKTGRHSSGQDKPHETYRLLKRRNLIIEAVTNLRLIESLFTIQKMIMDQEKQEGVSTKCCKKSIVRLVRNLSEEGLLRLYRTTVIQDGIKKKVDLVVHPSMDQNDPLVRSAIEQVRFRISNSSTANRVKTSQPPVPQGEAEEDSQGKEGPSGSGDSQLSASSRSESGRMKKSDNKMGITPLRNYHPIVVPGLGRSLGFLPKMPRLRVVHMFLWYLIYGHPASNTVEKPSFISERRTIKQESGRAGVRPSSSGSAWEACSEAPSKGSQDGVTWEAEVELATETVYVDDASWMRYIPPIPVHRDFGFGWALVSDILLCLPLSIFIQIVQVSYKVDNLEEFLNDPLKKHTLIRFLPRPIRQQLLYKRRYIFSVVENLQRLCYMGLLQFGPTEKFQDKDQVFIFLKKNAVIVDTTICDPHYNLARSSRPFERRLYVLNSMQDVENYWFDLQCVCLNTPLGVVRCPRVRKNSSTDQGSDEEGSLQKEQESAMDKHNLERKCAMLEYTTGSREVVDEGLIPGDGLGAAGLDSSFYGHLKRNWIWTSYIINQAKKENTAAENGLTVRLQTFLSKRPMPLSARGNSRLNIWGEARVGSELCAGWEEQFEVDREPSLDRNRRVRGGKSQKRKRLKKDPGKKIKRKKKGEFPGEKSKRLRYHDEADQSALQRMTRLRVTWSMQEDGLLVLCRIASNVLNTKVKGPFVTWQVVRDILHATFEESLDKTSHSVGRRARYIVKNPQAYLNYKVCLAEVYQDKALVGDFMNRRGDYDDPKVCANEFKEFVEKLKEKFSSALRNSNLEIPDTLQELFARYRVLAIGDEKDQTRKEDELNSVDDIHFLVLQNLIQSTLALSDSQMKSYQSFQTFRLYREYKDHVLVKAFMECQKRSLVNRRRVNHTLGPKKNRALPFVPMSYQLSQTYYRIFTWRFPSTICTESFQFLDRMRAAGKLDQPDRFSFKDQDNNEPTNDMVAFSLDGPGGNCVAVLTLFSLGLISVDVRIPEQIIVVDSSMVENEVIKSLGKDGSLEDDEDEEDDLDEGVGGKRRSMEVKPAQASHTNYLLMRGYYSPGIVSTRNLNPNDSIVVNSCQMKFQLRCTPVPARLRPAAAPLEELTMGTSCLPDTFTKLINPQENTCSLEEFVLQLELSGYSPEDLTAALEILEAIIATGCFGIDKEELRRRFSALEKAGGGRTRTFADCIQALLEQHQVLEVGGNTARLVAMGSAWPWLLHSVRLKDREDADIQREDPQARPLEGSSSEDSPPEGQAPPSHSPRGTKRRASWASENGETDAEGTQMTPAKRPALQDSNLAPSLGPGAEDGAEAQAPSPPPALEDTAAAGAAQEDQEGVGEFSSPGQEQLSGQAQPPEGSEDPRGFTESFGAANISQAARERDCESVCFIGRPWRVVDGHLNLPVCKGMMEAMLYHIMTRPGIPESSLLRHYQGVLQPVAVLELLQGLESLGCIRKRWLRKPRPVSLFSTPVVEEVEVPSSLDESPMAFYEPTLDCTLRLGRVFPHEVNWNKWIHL

[2] = compound: C/C(=N\NC(=O)C1=CC(=CC=C1)S(=O)(=O)N2CCOCC2)/C3=C(C=CC(=C3)Cl)O
Summary of the method: as §1

[3] = compound: C1=CC(=C(C=C1Cl)C2=NC3=NC=CN=C3C(=N2)NC4=CC=NC=C4)F
Summary of the method: as §1

[4] = compound: C1=CC(=CC=C1C2=NC3=C(N2)C=C(C=C3)C(=O)N)OC4=CC=C(C=C4)Cl
Summary of the method: as §1

[5] = compound: C1=CC2=C(C=CC(=C2)/C=C\3/C(=O)NC(=NCC4=CC=CS4)S3)N=C1
Summary of the method: as §1

[6] = compound: C1=CC2=NC=CN=C2C=C1/C=C/3\C(=O)NC(=O)S3
Summary of the method: as §1

[7] = compound: C1=CC=C(C=C1)C2=NC(=C(N2)C3=CC=NC=C3)C4=CC(=C(C=C4)Cl)O
Summary of the method: as §1

[8] = compound: C1=CC=C2C(=C1)C3=NNC4=CC=CC(=C43)C2=O
Summary of the method: as §1

[9] = compound: C1CCN(C1)C(=O)NC2=CC=CC(=C2)NC3=NC=C(C(=N3)NCCC4=CN=CN4)Br
Summary of the method: as §1

[10] = compound: C1CN(CCC1(CC2=CC=C(C=C2)Cl)N)C3=NC=NC4=C3C=CN4
Summary of the method: as §1

Measured: log2 fold change

GSTO1 (UniProt P78417)
inactive: [1] -0.009 | [2] 0.007 | [3] 0.065 | [4] -0.001 | [5] 0.006 | [7] 0.095 | [8] 0.031 | [9] -0.005 | [10] 0.008
active: [6] 0.278

HDLBP (UniProt Q00341)
inactive: [1] 0.04 | [2] -0.018 | [3] -0.319 | [4] 0.027 | [5] 0.016 | [6] 0 | [7] -0.031 | [8] 0.007 | [9] -0.047 | [10] -0.19

GSTM4 (UniProt Q03013)
inactive: [1] 0.084 | [2] -0.029 | [3] 0.217 | [4] -0.002 | [5] -0.038 | [6] 0.268 | [7] -0.031 | [8] -0.128 | [9] 0.018 | [10] 0.062

H1FX (UniProt Q92522)
inactive: [1] -0.285 | [2] -0.189 | [3] -0.379 | [4] 0.016 | [5] -0.12 | [6] -0.012 | [7] 0.033 | [8] 0 | [9] 0.076 | [10] -0.101

GSR (UniProt P00390)
inactive: [1] -0.099 | [2] 0.021 | [3] 0.071 | [4] 0.067 | [5] 0.023 | [6] 0.007 | [7] -0.026 | [8] -0.017 | [9] 0.011 | [10] 0.054

HACD3 (UniProt Q9P035)
inactive: [1] 0.023 | [2] 0.046 | [3] 0.027 | [4] 0.026 | [5] 0.035 | [6] 0.037 | [7] -0.011 | [8] -0.029 | [9] 0.037 | [10] 0.009

GTF2H3 (UniProt Q13889)
inactive: [1] -0.002 | [2] 0.041 | [3] -0.115 | [4] 0.051 | [5] 0.027 | [6] -0.017 | [7] 0.014 | [8] 0.012 | [9] -0.004 | [10] 0.044

H1-5 (UniProt P16401)
inactive: [1] -0.066 | [2] -0.261 | [3] -0.541 | [4] 0.016 | [5] -0.123 | [6] -0.003 | [7] -0.07 | [8] 0.013 | [9] -0.051 | [10] -0.37

HCCS (UniProt P53701)
inactive: [1] 0.076 | [2] -0.04 | [3] 0.033 | [4] -0.009 | [5] 0.057 | [6] -0.018 | [7] -0.089 | [8] -0.044 | [9] 0.096 | [10] 0.06

GTPBP2 (UniProt Q9BX10)
inactive: [1] 0.073 | [2] -0.009 | [3] -0.033 | [4] -0.085 | [5] 0.043 | [6] -0.005 | [7] 0.004 | [8] -0.006 | [9] 0.009 | [10] -0.03

HELQ (UniProt Q8TDG4)
inactive: [1] -0.08 | [2] -0.065 | [3] -0.053 | [4] 0.071 | [5] 0.069 | [6] -0.109 | [7] 0.043 | [8] 0.024 | [9] 0.095 | [10] -0.058

HAGHL isoform 2 (UniProt Q6PII5)
inactive: [1] 0.173 | [2] 0.052 | [3] 0.125 | [4] 0.009 | [5] -0.079 | [6] 0.015 | [7] 0.183 | [8] -0.023

GTF2B (UniProt Q00403)
inactive: [1] 0.069 | [2] 0.136 | [3] 0.048 | [4] -0.035 | [5] 0.149 | [6] 0.027 | [7] -0.033 | [8] 0.01 | [9] -0.065 | [10] -0.046

HBS1L (UniProt Q9Y450)
inactive: [1] 0.043 | [2] 0.078 | [3] 0.046 | [4] -0.009 | [5] 0.047 | [6] -0.009 | [7] -0.002 | [8] 0.019 | [9] 0.012 | [10] -0.008

HDDC3 (UniProt Q8N4P3)
inactive: [1] 0.031 | [2] -0.084 | [3] 0.033 | [4] -0.034 | [5] 0.104 | [6] 0.043 | [7] -0.014 | [8] 0.014 | [9] 0.007 | [10] 0.013

Two consecutive records already listed:
HCCS (UniProt P53701)
inactive: [1] 0.076 | [2] -0.04 | [3] 0.033 | [4] -0.009 | [5] 0.057 | [6] -0.018 | [7] -0.089 | [8] -0.044 | [9] 0.096 | [10] 0.06

GTPBP2 (UniProt Q9BX10)
inactive: [1] 0.073 | [2] -0.009 | [3] -0.033 | [4] -0.085 | [5] 0.043 | [6] -0.005 | [7] 0.004 | [8] -0.006 | [9] 0.009 | [10] -0.03

Following part

GTF3C4 (UniProt Q9UKN8)
inactive: [1] -0.016 | [2] 0.065 | [3] 0.026 | [4] 0.003 | [5] 0.025 | [6] -0.005 | [7] 0.003 | [8] -0.022 | [9] -0.026 | [10] 0.027

GUSB (UniProt P08236)
inactive: [1] 0.09 | [2] -0.099 | [3] -0.063 | [4] 0.165 | [5] -0.095 | [6] 0.032 | [7] 0.009 | [8] 0.052 | [9] 0.033 | [10] -0.002

HBE1 (UniProt P02100)
inactive: [1] -0.088 | [2] 0.028 | [3] 0.205 | [4] 0.053 | [5] 0.136 | [6] -0.005 | [7] 0.071 | [8] 0.03 | [9] 0 | [10] 0.018

H1-4 (UniProt P10412)
inactive: [1] -0.155 | [2] -0.189 | [3] -0.507 | [4] 0 | [5] -0.152 | [6] -0.048 | [7] -0.076 | [8] 0.042 | [9] -0.081 | [10] -0.406

GTSE1 (UniProt Q9NYZ3)
inactive: [1] -0.018 | [2] -0.116 | [3] 0.004 | [4] 0.112 | [5] 0.1 | [6] 0.109 | [7] -0.04 | [8] -0.008 | [9] 0.068 | [10] -0.023

HBA1 (UniProt P69905)
inactive: [1] -0.058 | [2] 0.048 | [3] 0.215 | [4] 0.063 | [5] 0.104 | [6] 0.023 | [7] 0.123 | [8] -0.026 | [9] -0.105 | [10] 0.031

GSTP1 (UniProt P09211)
inactive: [1] 0.021 | [2] 0.038 | [3] 0.013 | [4] -0.016 | [5] 0.041 | [6] 0.037 | [7] 0.014 | [8] 0.005 | [9] 0.021 | [10] 0.057

HDAC7 isoform 5 (UniProt Q8WUI4)
inactive: [1] 0.025 | [2] 0.057 | [3] -0.08 | [4] 0.007 | [5] -0.126 | [6] -0.008 | [7] -0.037 | [8] -0.171 | [9] -0.056 | [10] 0.025

HEATR1 (UniProt Q9H583)
inactive: [1] -0.198 | [2] -0.267 | [3] -0.14 | [4] 0.116 | [5] 0.178 | [6] 0.106 | [7] -0.037 | [8] 0.028 | [9] 0.044 | [10] -0.17

HDGFL2 (UniProt Q7Z4V5)
inactive: [1] 0.002 | [2] 0.001 | [3] 0.042 | [4] -0.006 | [5] -0.046 | [6] 0.048 | [7] -0.01 | [8] -0.046 | [9] 0.033 | [10] 0.057

H2AZ1 (UniProt P0C0S5)
inactive: [1] -0.025 | [2] -0.13 | [3] -0.554 | [4] -0.014 | [5] -0.087 | [6] 0.169 | [7] -0.189 | [8] 0.036 | [9] 0.07 | [10] 0.037

HBZ (UniProt P02008)
inactive: [1] -0.013 | [2] 0.077 | [3] 0.252 | [4] 0.042 | [5] 0.143 | [6] 0.006 | [7] 0.118 | [8] 0.017 | [9] -0.034 | [10] 0.043

HELB (UniProt Q8NG08)
inactive: [1] 0.128 | [2] 0.122 | [3] 0.02 | [4] -0.065 | [5] 0.008 | [6] -0.03 | [7] 0.019 | [8] -0.022 | [9] -0.06 | [10] 0.087

GTF3C1 (UniProt Q12789)
inactive: [1] 0.336 | [2] -0.423 | [3] -0.018 | [4] -0.018 | [5] 0.17 | [6] -0.007 | [7] -0.436 | [8] 0.007 | [9] -0.138 | [10] 0.035

GSPT2 (UniProt Q8IYD1)
inactive: [1] -0.004 | [2] 0.085 | [3] -0.276 | [4] 0.003 | [5] -0.086 | [6] -0.004 | [7] 0.021 | [8] 0.062
